Experimental data as given in PubChem BioAssay AID1487 (National Center for Advancing Translational Sciences (NCATS), 2009).
Where “and” joins values, the source holds several entries; their conditions need not be identical. Identical values can stand only once. This is one part of the list. These are further read-outs of the screen, such as a control signal, another cell line or another target. No call is given for them. Compounds called inactive in the main read-out are mostly missing here. Words in brackets tell the shape of the fitted curve; partial curves, single points and poor fits give uncertain potencies.

Assay: qHTS Assay for Modulators of Lamin A Splicing
Conditions: HeLa LMNA splicing GFP/RFP minigene ratio, 48 h
How it was run: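 S3 HeLa stable clones carrying a lamin A-EGFP splicing minigene plus DsRed2 were seeded at 600 cells/well in Opti-MEM with 2% FBS, pin-dosed and incubated 48 h at 37°C. Acumen cytometry (488 nm) gave the GFP/RFP total-intensity ratio.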

[1] = measured here: GFP splicing reporter channel
[2] = measured here: RFP viability control channel

| SMILES | AC50 [1] | AC50 [2] |
| --- | --- | --- |
| O=C(Nc1ccc2nccnc2c1)c1ccco1 | 0.0178 µM [rising, full curve, poor fit] |  |
| COc1cc(C(=O)N2CCN(c3ccc(C)cc3C)CC2)cc(OC)c1OC |  | 4.47 µM [rising, full curve] |
| Cc1ccc2c(c1)nnn2C1CCN(S(=O)(=O)c2ccc(C(=O)N(C)C)cc2)CC1 |  | 22.4 µM [rising, single point] |
| COc1ccc(OC)c(-c2cc(C3CCN(c4ncccc4[N+](=O)[O-])CC3)[nH]n2)c1 |  | 11.2 µM [rising, single point] |
| O[C@@](CCN1CCCC1)(c1ccccc1)C1CCCCC1 |  | 0.000398 µM [rising, full curve, poor fit] |
| CCN(CC)CCOc1ccccc1C(C)=O | 2.51 µM [falling, full curve] | 3.16 µM [falling, partial curve] |
| COc1ccc(NC(=O)C23CC4CC(C2)CC(c2ccccc2)(C4)C3)c(OC)c1 |  | 35.5 µM [rising, single point] |
| NCCCCCC(=O)O | 316 nM [falling, full curve, poor fit] and 5.62 µM [falling, partial curve, poor fit] |  |
| Cc1ccc(C(=O)c2sc(Nc3ccccc3)c(S(=O)(=O)c3ccccc3)c2N)c(C)c1 |  | 3.98 µM [rising, partial curve, poor fit] |
| CCOC(=O)c1cccc(NC(=O)Cn2c(=O)c3cccn3c3ccccc32)c1 |  | 11.2 µM [rising, partial curve, poor fit] |
| CC(C)Oc1ccc(/C=N/NC(=O)c2ccc(N(Cc3ccccc3)S(C)(=O)=O)cc2)cc1 |  | 12.6 µM [rising, single point] |
| CCC(C)NC(=O)COC(=O)c1oc2ccccc2c1CSc1ccc(Cl)cc1 (stereo not drawn) | 11.2 µM [rising, partial curve, poor fit] | 35.5 µM [rising, single point] |
| O=C(CNS(=O)(=O)c1ccc(Br)s1)NC1CCCc2ccccc21 (stereo not drawn) | 35.5 µM [rising, single point] | 35.5 µM [rising, single point] |
| CCOC(=O)C(NCCc1ccccc1F)(NC(C)=O)C(F)(F)F (stereo not drawn) |  | 17.8 µM [rising, single point] |
| O=C(CSCc1ccccc1)Nc1nccs1 |  | 3.16 µM [rising, single point] |
| CCc1nc(NCCN2CCOCC2)c(C#N)c2c1CCCC2 |  | 12.6 µM [rising, partial curve, poor fit] |
| C=CCNC(=O)c1onc(CSc2cc(C)ccc2C)c1C(=O)O | 20 µM [falling, single point] |  |
| O=C(NCc1ccccc1)c1cccc(COc2ccccc2Cl)c1 | 35.5 µM [falling, single point] |  |
| COC(=O)Nc1nnc(CCc2ccccc2)s1 |  | 0.0891 µM [rising, single point] |

| SMILES | AC50 [1] | AC50 [2] |
| --- | --- | --- |
| CCOC(=O)c1nnn(CC(=O)N2N=C(c3cccc4ccccc34)CC2c2ccccc2)c1C(=O)OCC (stereo not drawn) |  | 10 µM [rising, partial curve, poor fit] |
| CC12CC(NC(=O)N1c1cccc(C(=O)Nc3ncn[nH]3)c1)c1ccccc1O2 (stereo not drawn) |  | 8.91 µM [rising, partial curve, poor fit] |
| CNCCc1ccccn1 | 31.6 nM [falling, partial curve, poor fit] and 35.5 nM [rising, full curve] | 44.7 nM [falling, single point] and 3.98 µM [rising, full curve, poor fit] |
| COc1ccc(NC(=O)N2CCC(Cc3ccccc3)CC2)cc1 | 31.6 µM [falling, single point] |  |
| COc1ccc(C(CC(=O)O)NC(=O)C2CCCCC2)cc1 (stereo not drawn) |  | 0.0316 µM [falling, full curve] |
| Cc1scc(C(=O)NNC(=S)NC(C)c2ccccc2)c1C (stereo not drawn) | 8.91 µM [rising, single point] | 25.1 µM [rising, single point] |
| Cn1cc(-c2nc3cnc(N4CCNCC4)nc3n(C3CC3)c2=O)c2ccccc21 | 12.6 µM [falling, partial curve] | 14.1 µM [falling, partial curve] |
| CCOC(=O)c1ccc(S(=O)(=O)Nc2cc(C(=O)O)ccc2Cl)cc1 | 0.00316 µM [falling, full curve, poor fit] | 0.00316 µM [falling, full curve, poor fit] |
| CC1CCc2cc(F)ccc2N1C(=O)c1cc2nc(-c3ccco3)cc(C(F)(F)F)n2n1 (stereo not drawn) |  | 11.2 µM [rising, partial curve] |
| CCCC1=Nc2cc(C(=O)NCc3ccco3)ccc2Sc2ccccc21 | 35.5 µM [falling, single point] | 2.51 µM [falling, partial curve, poor fit] |
| O=[N+]([O-])c1ccc(NNC(=S)Nc2ccccc2)cc1 |  | 35.5 µM [rising, single point] |
| Cc1csc(NC(=O)c2c(O)c3c(n(CC(C)C)c2=O)CCCC3)n1 |  | 5.62 µM [rising, single point] |
| COc1ccc(S(=O)(=O)n2nc(OC(=O)c3ccccc3)cc2N)cc1 |  | 3.55 µM [falling, single point] |
| Nc1nc2c(s1)CCc1c-2cnn1-c1ccccc1 |  | 6.31 µM [falling, partial curve, poor fit] |
| Cn1cc(CN(CCCN2CCOCC2)C(=S)Nc2cccc(Cl)c2)c2ccccc21 | 28.2 µM [rising, single point] | 15.8 µM [rising, partial curve] |
| CCC(C)(C)NC(=O)C(c1ccc(OC)cc1)N(Cc1cccs1)C(=O)CCC(=O)Nc1cc(C)on1 (stereo not drawn) | 12.6 µM [rising, partial curve, poor fit] | 28.2 µM [rising, single point] |
| CCOC(=O)N1CCc2c(sc3c2c(=O)n(Cc2ccccc2)c(=O)n3Cc2cccc(C)c2)C1 |  | 11.2 µM [rising, single point] |
| CC1(C)Cc2ccccc2C(c2cc3ccccc3oc2=O)=N1 |  | 22.4 µM [rising, partial curve] |
| O=C(Nc1cccc(S(=O)(=O)N2CCCCC2)c1)c1ccc2c(c1)OCO2 | 12.6 µM [rising, partial curve] | 12.6 µM [rising, partial curve] |

| SMILES | AC50 [1] | AC50 [2] |
| --- | --- | --- |
| Cc1ccc(-n2c(C)cc(/C=N/NC(=O)Cn3c4ccccc4c(=O)c4ccccc43)c2C)cc1 |  | 17.8 µM [rising, single point] |
| CCCOc1c(Cl)cc(C(=O)NC)cc1OC | 0.0158 µM [rising, full curve, poor fit] |  |
| N/C(=N\OC(=O)CC1CCCCC1)c1ccncc1 | 25.1 µM [falling, partial curve, poor fit] |  |
| CSC1=NC(C)(C)C=C(/C=C/c2ccc(Cl)cc2)N1 | 0.398 µM [rising, full curve, poor fit] | 0.562 µM [rising, full curve, poor fit] |
| COC(=O)C(Cc1ccccc1)NC(=O)COc1ccc(C(C)(C)C)cc1 (stereo not drawn) |  | 31.6 µM [rising, single point] |
| Cc1ccccc1C(=O)Nc1ccnc(-c2ccncc2)n1 | 0.0891 µM [falling, full curve, poor fit] |  |
| Cc1ccccc1Nc1nn2c(=O)c3ccc(C(=O)NCc4ccccc4)cc3nc2s1 | 1.41 µM [rising, full curve] | 2.82 µM [rising, partial curve] |
| C=CCOc1ccccc1CN1CCSCC1 | 15.8 µM [rising, single point] |  |
| CCC(=O)N1CCN(c2ccc(Cl)cc2NC(=O)c2cccc([N+](=O)[O-])c2)CC1 |  | 14.1 µM [rising, partial curve] |
| CCOC(=O)c1ccc(NC(=O)c2ccc(CN3CCOCC3)cc2)cc1 |  | 7.94 µM [rising, partial curve] |
| O=C(c1ccc2nc(N3CCCCC3)sc2c1)N1CCN(Cc2ccc3c(c2)OCO3)CC1 | 22.4 µM [rising, single point] | 20 µM [rising, partial curve] |
| COc1cc2c(cc1NC(=O)COC(=O)C(CCSC)NC(=O)c1ccccc1Cl)oc1ccccc12 (stereo not drawn) | 0.2 µM [rising, partial curve] |  |
| O=C(Nc1cccc(S(=O)(=O)Nc2ccc(Cl)cc2)c1)c1ccc2c(c1)OCCO2 | 0.794 µM [rising, partial curve] | 3.16 µM [rising, partial curve] |
| COc1ccc2c(c1)CCc1sc(NC(=O)c3cccc(Br)c3)nc1-2 |  | 2.24 µM [falling, partial curve, poor fit] |
| O=C(COc1ccccc1Cl)Nc1nc(-c2cccs2)cs1 | 31.6 µM [rising, single point] | 31.6 µM [rising, single point] |
| Fc1ccccc1N1CC(c2ccccc2)C(c2cccs2)=N1 (stereo not drawn) | 35.5 µM [rising, single point] |  |
| CC12CC(NC(=O)N1CCc1ccccc1)c1ccccc1O2 (stereo not drawn) | 10 µM [rising, partial curve] |  |
| Oc1ccc(/C=N/Nc2ncc(Br)cn2)c(O)c1 |  | 25.1 µM [rising, single point] |
| O=C(CSc1nc(=O)[nH]c2c1CCC2)Nc1cc(C(F)(F)F)ccc1Cl | 35.5 µM [falling, single point] |  |
